Measured values taken from the supplement of paper PMC8728848.
Some of the results follow.

Assays:
Assay in all cases: glycan array binding signal (z-score within array); higher = stronger binding
Conditions in all cases: glycan notation: IUPAC condensed, linker removed
[1] = target: Neu5Ac(a2-3)Gal(b1-3)GlcNAc(b1-2)Man(a1-3)[Neu5Ac(a2-3)Gal(b1-3)GlcNAc(b1-2)Man(a1-6)]Man(b1-4)GlcNAc(b1-4)GlcNAc
Method in brief: (§1)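 Glycan array binding is given as a within-array Z-score, which can be read as non-binding when negative. The arrays, 3228 of them, came from the Consortium for Functional Glycomics database and were retained only where the protein sequence was available. Z-scores were averaged across arrays of the same protein sequence at different concentrations or buffers and across linkers.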

[2] = target: Neu5Ac(a2-3)Gal(b1-3)GlcNAc(b1-2)[Neu5Ac(a2-3)Gal(b1-3)GlcNAc(b1-4)]Man(a1-6)[Neu5Ac(a2-3)Gal(b1-3)GlcNAc(b1-2)Man(a1-3)]Man(b1-4)GlcNAc(b1-4)GlcNAc
Method in brief: as §1

[3] = target: Neu5Ac(a2-3)Gal(b1-3)GlcNAc(b1-3)Gal(b1-3)GlcNAc
Method in brief: as §1

[4] = target: Neu5Ac(a2-3)Gal(b1-3)GlcNAc(b1-3)Gal(b1-4)GlcNAc
Method in brief: as §1

[5] = target: Neu5Ac(a2-3)Gal(b1-3)GlcNAc(b1-3)GalNAc
Method in brief: as §1

[6] = target: Neu5Ac(a2-3)Gal(b1-3)GlcNAc(b1-4)Gal(b1-4)Glc
Method in brief: as §1

[7] = target: Neu5Ac(a2-3)Gal(b1-3)GlcNAc(b1-6)GalNAc
Method in brief: as §1

[8] = target: Neu5Ac(a2-3)Gal(b1-3)GlcNAc6S
Method in brief: as §1

[9] = target: Neu5Ac(a2-3)Gal(b1-3)[Fuc(a1-4)]GlcNAc
Method in brief: as §1

[10] = target: Neu5Ac(a2-3)Gal(b1-3)[Fuc(a1-4)]GlcNAc(b1-3)Gal(b1-3)[Fuc(a1-4)]GlcNAc
Method in brief: as §1

[11] = target: Neu5Ac(a2-3)Gal(b1-3)[Fuc(a1-4)]GlcNAc(b1-3)Gal(b1-4)[Fuc(a1-3)]GlcNAc
Method in brief: as §1

[12] = target: Neu5Ac(a2-3)Gal(b1-3)[GlcNAc(b1-6)]GalNAc
Method in brief: as §1

[13] = target: Neu5Ac(a2-3)Gal(b1-3)[Neu5Ac(a2-3)Gal(b1-4)]GlcNAc
Method in brief: as §1

[14] = target: Neu5Ac(a2-3)Gal(b1-3)[Neu5Ac(a2-6)]GalNAc
Method in brief: as §1

[15] = target: Neu5Ac(a2-3)Gal(b1-3)[Neu5Ac(a2-6)]GlcNAc(b1-3)[Fuc(a1-3)[Gal(b1-4)]GlcNAc(b1-6)]Gal(b1-4)Glc
Method in brief: as §1

[16] = target: Neu5Ac(a2-3)Gal(b1-3)]Neu5Ac(a2-3)Gal(b1-4)]GlcNAc
Method in brief: as §1

Neu5Ac(a2-3)Gal(b1-4)Glc = target: Neu5Ac(a2-3)Gal(b1-4)Glc
Method in brief: as §1

[17] = target: Neu5Ac(a2-3)Gal(b1-4)GlcNAc
Method in brief: as §1

[18] = target: Neu5Ac(a2-3)Gal(b1-4)GlcNAc(b1-2)Man
Method in brief: as §1

[19] = target: Neu5Ac(a2-3)Gal(b1-4)GlcNAc(b1-2)Man(a1-3)[GlcNAc(b1-2)Man(b1-4)GlcNAc(b1-2)Man(a1-6)]Man(b1-4)GlcNAc(b1-4)GlcNAc
Method in brief: as §1

[20] = target: Neu5Ac(a2-3)Gal(b1-4)GlcNAc(b1-2)Man(a1-3)[GlcNAc(b1-4)][Neu5Ac(a2-3)Gal(b1-4)GlcNAc(b1-2)Man(a1-6)]Man(b1-4)GlcNAc(b1-4)GlcNAc
Method in brief: as §1

[21] = target: Neu5Ac(a2-3)Gal(b1-4)GlcNAc(b1-2)Man(a1-3)[Neu5Ac(a2-3)Gal(b1-4)GlcNAc(b1-2)Man(a1-6)]Man(b1-4)GlcNAc(b1-4)GlcNAc
Method in brief: as §1

[22] = target: Neu5Ac(a2-3)Gal(b1-4)GlcNAc(b1-2)Man(a1-3)[Neu5Ac(a2-3)Gal(b1-4)GlcNAc(b1-2)Man(a1-6)]Man(b1-4)GlcNAc(b1-4)[Fuc(a1-6)]GlcNAc
Method in brief: as §1

[23] = target: Neu5Ac(a2-3)Gal(b1-4)GlcNAc(b1-2)Man(a1-3)[Neu5Ac(a2-6)Gal(b1-4)GlcNAc(b1-2)Man(a1-6)]Man(b1-4)GlcNAc(b1-4)GlcNAc
Method in brief: as §1

[24] = target: Neu5Ac(a2-3)Gal(b1-4)GlcNAc(b1-2)[Neu5Ac(a2-3)Gal(b1-4)GlcNAc(b1-4)]Man(a1-3)[GlcNAc(b1-4)][Neu5Ac(a2-3)Gal(b1-4)GlcNAc(b1-2)[Neu5Ac(a2-3)Gal(b1-4)GlcNAc(b1-6)]Man(a1-6)]Man(b1-4)GlcNAc(b1-4)GlcNAc
Method in brief: as §1

[25] = target: Neu5Ac(a2-3)Gal(b1-4)GlcNAc(b1-2)[Neu5Ac(a2-3)Gal(b1-4)GlcNAc(b1-4)]Man(a1-3)[GlcNAc(b1-4)][Neu5Ac(a2-3)Gal(b1-4)GlcNAc(b1-4)Man(a1-6)]Man(b1-4)GlcNAc(b1-4)GlcNAc
Method in brief: as §1

[26] = target: Neu5Ac(a2-3)Gal(b1-4)GlcNAc(b1-2)[Neu5Ac(a2-3)Gal(b1-4)GlcNAc(b1-6)]Man(a1-6)[Neu5Ac(a2-3)Gal(b1-4)GlcNAc(b1-2)Man(a1-3)][GlcNAc(b1-4)]Man(b1-4)GlcNAc(b1-4)GlcNAc
Method in brief: as §1

[27] = target: Neu5Ac(a2-3)Gal(b1-4)GlcNAc(b1-3)Gal
Method in brief: as §1

[28] = target: Neu5Ac(a2-3)Gal(b1-4)GlcNAc(b1-3)Gal(b1-3)GlcNAc
Method in brief: as §1

[29] = target: Neu5Ac(a2-3)Gal(b1-4)GlcNAc(b1-3)Gal(b1-4)GlcNAc
Method in brief: as §1

[30] = target: Neu5Ac(a2-3)Gal(b1-4)GlcNAc(b1-3)Gal(b1-4)GlcNAc(b1-2)Man(a1-3)[Neu5Ac(a2-3)Gal(b1-4)GlcNAc(b1-3)Gal(b1-4)GlcNAc(b1-2)Man(a1-6)]Man(b1-4)GlcNAc(b1-4)GlcNAc
Method in brief: as §1

[31] = target: Neu5Ac(a2-3)Gal(b1-4)GlcNAc(b1-3)Gal(b1-4)GlcNAc(b1-3)Gal(b1-4)GlcNAc
Method in brief: as §1

[32] = target: Neu5Ac(a2-3)Gal(b1-4)GlcNAc(b1-3)Gal(b1-4)GlcNAc(b1-3)Gal(b1-4)GlcNAc(b1-2)Man(a1-3)[Neu5Ac(a2-3)Gal(b1-4)GlcNAc(b1-3)Gal(b1-4)GlcNAc(b1-3)Gal(b1-4)GlcNAc(b1-2)Man(a1-6)]GalNAc
Method in brief: as §1

[33] = target: Neu5Ac(a2-3)Gal(b1-4)GlcNAc(b1-3)Gal(b1-4)GlcNAc(b1-3)GalNAc
Method in brief: as §1

[34] = target: Neu5Ac(a2-3)Gal(b1-4)GlcNAc(b1-3)Gal(b1-4)GlcNAc(b1-3)[Neu5Ac(a2-3)Gal(b1-4)GlcNAc(b1-3)Gal(b1-4)GlcNAc(b1-6)]GalNAc
Method in brief: as §1

[35] = target: Neu5Ac(a2-3)Gal(b1-4)GlcNAc(b1-3)Gal(b1-4)GlcNAc(b1-6)[Gal(b1-3)]GalNAc
Method in brief: as §1

[36] = target: Neu5Ac(a2-3)Gal(b1-4)GlcNAc(b1-3)Gal(b1-4)[Fuc(a1-3)]GlcNAc
Method in brief: as §1

B1: CRT-1 (Homo sapiens), P27797 (protein)
chain: MLLSVPLLLGLLGLAVAEPAVYFKEQFLDGDGWTSRWIESKHKSDFGKFVLSSGKFYGDEEKDKGLQTSQDARFYALSASFEPFSNKGQTLVVQFTVKHEQNIDCGGGYVKLFPNSLDQTDMHGDSEYNIMFGPDICGPGTKKVHVIFNYKGKNVLINKDIRCKDDEFTHLYTLIVRPDNTYEVKIDNSQVESGSLEDDWDFLPPKKIKDPDASKPEDWDERAKIDDPTDSKPEDWDKPEHIPDPDAKKPEDWDEEMDGEWEPPVIQNPEYKGEWKPRQIDNPDYKGTWIHPEIDNPEYSPDPSIYAYDNFGVLGLDLWQVKSGTIFDNFLITNDEAYAEEFGNETWGVTKAAEKQMKDKQDEEQRLKEEEEDKKRKEEEEAEDKEDDEDKDEDEEDEEDKEEDEEEDVPGQAKDEL
glycan array binding signal (z-score) [1]: -0.77 | glycan array binding signal (z-score) [2]: -0.396 | glycan array binding signal (z-score) [3]: -0.776 | glycan array binding signal (z-score) [4]: -0.783 | glycan array binding signal (z-score) [5]: 0.481 | glycan array binding signal (z-score) [6]: -1.66 | glycan array binding signal (z-score) [7]: 0.522 | glycan array binding signal (z-score) [8]: 0.25 | glycan array binding signal (z-score) [9]: -0.036 | glycan array binding signal (z-score) [10]: -0.707 | glycan array binding signal (z-score) [11]: 0.492 | glycan array binding signal (z-score) [12]: -0.093 | glycan array binding signal (z-score) [13]: -0.29 | glycan array binding signal (z-score) [14]: 0.236 | glycan array binding signal (z-score) [15]: -0.346 | glycan array binding signal (z-score) [16]: -0.786 | glycan array binding signal (z-score) (Neu5Ac(a2-3)Gal(b1-4)Glc): -0.013 | glycan array binding signal (z-score) [17]: -0.166 | glycan array binding signal (z-score) [18]: 0.609 | glycan array binding signal (z-score) [19]: -0.229 | glycan array binding signal (z-score) [20]: 0.286 | glycan array binding signal (z-score) [21]: -0.33 | glycan array binding signal (z-score) [22]: -0.033 | glycan array binding signal (z-score) [23]: 0.276 | glycan array binding signal (z-score) [24]: 0.301 | glycan array binding signal (z-score) [25]: -0.443 | glycan array binding signal (z-score) [26]: 1.45 | glycan array binding signal (z-score) [27]: -0.453 | glycan array binding signal (z-score) [28]: -0.237 | glycan array binding signal (z-score) [29]: 0.447 | glycan array binding signal (z-score) [30]: 0.369 | glycan array binding signal (z-score) [31]: -0.009 | glycan array binding signal (z-score) [32]: 1.2 | glycan array binding signal (z-score) [33]: -0.225 | glycan array binding signal (z-score) [34]: 0.809 | glycan array binding signal (z-score) [35]: -0.474 | glycan array binding signal (z-score) [36]: -0.593
